Reference: article doi:10.1101/756874
These are yes or no findings as the source states them, for the method shown.

Experiments:
[1] = biological target: BAK V142C/F150C, disulfide form (human) (UniProt Q16611); assay: SEC
[2] = biological target: BAK A28C/L163C, disulfide form (human) (UniProt Q16611); assay: SEC

| Binder | binding [1] | binding [2] |
| --- | --- | --- |
| BAK V142C/F150C, disulfide form (domain or fragment, UniProt Q16611 16-185, disulfide staple between the introduced cysteines 142 and 150) EPALPSASEEQVAQDTEEVFRSYVFYRHQQEQEAEGVAAPADPEMVTLPLQPSSTMGQVGRQLAIIGDDINRRYDSEFQTMLQHLQPTAENAYEYFTKIATSLFESGINWGRVVALLGFGYRLALHCYQHGLTGCLGQVTRFVVDFMLHHSIARWIAQRGGWVAALNLGN | no binding (tested: 20 μM) | – |
| BAK A28C/L163C, disulfide form (domain or fragment, UniProt Q16611 16-185, disulfide staple between the introduced cysteines 28 and 163) EPALPSASEEQVCQDTEEVFRSYVFYRHQQEQEAEGVAAPADPEMVTLPLQPSSTMGQVGRQLAIIGDDINRRYDSEFQTMLQHLQPTAENAYEYFTKIATSLFESGINWGRVVALLGFGYRLALHVYQHGLTGFLGQVTRFVVDFMCHHSIARWIAQRGGWVAALNLGN | – | no binding (tested: 20 μM) |
